Measurements taken from article PMC7919836.
These are yes or no findings as the source states them, for the method shown. In cells and extracts the contact can be indirect. Some binding calls cover weakened binding; strength is not graded here. Where a sequence is shown, tags or fusion partners need not be part of it.

Protein sequences, listed by entry. Tags and fused reporters are not part of them.
UniProt Q14694: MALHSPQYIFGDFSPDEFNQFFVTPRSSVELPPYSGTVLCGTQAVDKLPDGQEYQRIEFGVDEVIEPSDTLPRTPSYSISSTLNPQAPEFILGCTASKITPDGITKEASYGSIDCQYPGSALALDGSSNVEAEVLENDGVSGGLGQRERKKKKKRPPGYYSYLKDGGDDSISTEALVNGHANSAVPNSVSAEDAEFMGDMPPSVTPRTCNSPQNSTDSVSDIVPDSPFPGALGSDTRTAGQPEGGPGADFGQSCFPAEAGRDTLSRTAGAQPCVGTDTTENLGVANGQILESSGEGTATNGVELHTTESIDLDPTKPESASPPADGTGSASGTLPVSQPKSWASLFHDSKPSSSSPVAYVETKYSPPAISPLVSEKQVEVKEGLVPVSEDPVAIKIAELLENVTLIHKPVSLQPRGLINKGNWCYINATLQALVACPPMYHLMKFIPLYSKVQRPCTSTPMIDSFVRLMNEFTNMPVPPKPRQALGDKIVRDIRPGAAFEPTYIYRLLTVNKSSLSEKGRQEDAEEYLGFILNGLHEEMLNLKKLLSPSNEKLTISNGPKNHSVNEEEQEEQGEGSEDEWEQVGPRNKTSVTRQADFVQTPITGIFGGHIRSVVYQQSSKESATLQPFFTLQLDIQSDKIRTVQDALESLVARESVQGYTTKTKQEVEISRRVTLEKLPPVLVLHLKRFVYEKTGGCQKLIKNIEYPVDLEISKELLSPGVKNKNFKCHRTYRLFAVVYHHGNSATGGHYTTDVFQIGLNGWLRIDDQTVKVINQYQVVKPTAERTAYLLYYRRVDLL
UniProt P51784: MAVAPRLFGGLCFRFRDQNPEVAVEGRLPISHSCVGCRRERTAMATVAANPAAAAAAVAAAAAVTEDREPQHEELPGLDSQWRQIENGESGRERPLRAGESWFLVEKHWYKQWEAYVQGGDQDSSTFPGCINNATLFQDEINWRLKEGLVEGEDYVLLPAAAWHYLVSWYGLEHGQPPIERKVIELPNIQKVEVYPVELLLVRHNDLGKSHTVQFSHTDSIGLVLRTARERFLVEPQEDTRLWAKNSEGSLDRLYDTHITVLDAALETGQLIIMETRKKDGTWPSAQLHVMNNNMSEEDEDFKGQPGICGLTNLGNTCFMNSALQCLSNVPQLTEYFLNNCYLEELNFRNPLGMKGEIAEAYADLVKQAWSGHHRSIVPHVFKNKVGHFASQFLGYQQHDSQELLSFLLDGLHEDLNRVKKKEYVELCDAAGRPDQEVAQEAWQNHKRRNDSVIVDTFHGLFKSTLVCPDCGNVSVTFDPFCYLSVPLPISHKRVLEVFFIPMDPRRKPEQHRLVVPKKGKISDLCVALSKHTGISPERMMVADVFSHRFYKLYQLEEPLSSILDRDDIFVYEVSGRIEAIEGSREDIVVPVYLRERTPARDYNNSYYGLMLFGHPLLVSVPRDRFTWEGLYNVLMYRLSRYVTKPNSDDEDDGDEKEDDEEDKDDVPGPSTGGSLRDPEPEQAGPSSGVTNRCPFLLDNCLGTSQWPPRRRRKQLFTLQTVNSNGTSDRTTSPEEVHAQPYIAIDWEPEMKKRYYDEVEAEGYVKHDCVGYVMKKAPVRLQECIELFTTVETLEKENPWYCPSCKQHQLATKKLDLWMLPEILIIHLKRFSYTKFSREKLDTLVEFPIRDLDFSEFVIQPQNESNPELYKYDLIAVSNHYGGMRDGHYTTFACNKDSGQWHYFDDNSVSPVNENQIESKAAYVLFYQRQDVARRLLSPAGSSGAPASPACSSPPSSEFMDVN

Tests used:
Experiment in all cases: pull-down; SFB-tagged DUB (or OTUD6A full length or truncated) and MYC-tagged Aurora-A (full length or truncated) co-transfected into HEK293T; lysis in NETN buffer; DUB pulled down with S-protein beads at 4 °C overnight; Aurora-A blotted with MYC antibody
SFB-tagged USP10 (human) = SFB-tagged USP10 (human) (UniProt Q14694)
SFB-tagged MYSM1 (human) = target: T1, SFB-tagged MYSM1 (human) (UniProt Q5VVJ2)
T1 sequence: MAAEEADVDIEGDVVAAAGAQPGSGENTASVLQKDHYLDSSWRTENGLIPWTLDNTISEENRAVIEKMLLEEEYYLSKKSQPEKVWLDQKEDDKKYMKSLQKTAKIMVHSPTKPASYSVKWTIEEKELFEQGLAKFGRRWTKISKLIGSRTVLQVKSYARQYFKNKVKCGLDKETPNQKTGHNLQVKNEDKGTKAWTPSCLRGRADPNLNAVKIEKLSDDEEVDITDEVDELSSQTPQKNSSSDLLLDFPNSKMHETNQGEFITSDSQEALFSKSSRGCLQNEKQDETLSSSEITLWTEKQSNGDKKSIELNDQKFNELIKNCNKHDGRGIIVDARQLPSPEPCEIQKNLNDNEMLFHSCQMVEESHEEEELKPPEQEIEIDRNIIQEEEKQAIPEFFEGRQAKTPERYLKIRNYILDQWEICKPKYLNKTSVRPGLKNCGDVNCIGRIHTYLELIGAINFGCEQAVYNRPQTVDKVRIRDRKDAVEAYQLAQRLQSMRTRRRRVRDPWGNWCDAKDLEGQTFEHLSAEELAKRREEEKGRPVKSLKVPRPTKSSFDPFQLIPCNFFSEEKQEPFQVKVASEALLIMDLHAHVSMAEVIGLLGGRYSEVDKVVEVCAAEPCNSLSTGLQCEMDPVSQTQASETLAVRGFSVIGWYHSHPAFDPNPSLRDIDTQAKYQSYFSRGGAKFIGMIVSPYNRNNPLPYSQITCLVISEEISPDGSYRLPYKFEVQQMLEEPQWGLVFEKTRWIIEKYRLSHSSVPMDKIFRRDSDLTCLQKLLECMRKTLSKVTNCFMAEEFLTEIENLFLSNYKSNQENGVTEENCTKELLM

[1] = target: T2, SFB-tagged OTUD6A^ΔCt (C-terminal-deleted, aa 1-275) (human) (UniProt Q7L8S5)
T2 sequence: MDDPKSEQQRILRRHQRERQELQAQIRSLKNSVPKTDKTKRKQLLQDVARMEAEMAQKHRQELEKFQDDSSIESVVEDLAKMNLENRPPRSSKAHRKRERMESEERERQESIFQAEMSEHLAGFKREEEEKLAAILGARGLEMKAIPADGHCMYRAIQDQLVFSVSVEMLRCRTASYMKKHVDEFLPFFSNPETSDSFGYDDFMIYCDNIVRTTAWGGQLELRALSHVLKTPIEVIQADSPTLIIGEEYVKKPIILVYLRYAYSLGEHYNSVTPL

SFB-tagged USP11 (human) = SFB-tagged USP11 (human) (UniProt P51784)

binding (SFB-tagged USP10 (human)): binds
binding (SFB-tagged MYSM1 (human)): binds
binding [1]: binds
binding (SFB-tagged USP11 (human)): binds
B1: MYC-tagged Aurora kinase A, full-length wild type (aa 1-403) (protein, UniProt O14965 1-403)
chain: MDRSKENCISGPVKATAPVGGPKRVLVTQQFPCQNPLPVNSGQAQRVLCPSNSSQRIPLQAQKLVSSHKPVQNQKQKQLQATSVPHPVSRPLNNTQKSKQPLPSAPENNPEEELASKQKNEESKKRQWALEDFEIGRPLGKGKFGNVYLAREKQSKFILALKVLFKAQLEKAGVEHQLRREVEIQSHLRHPNILRLYGYFHDATRVYLILEYAPLGTVYRELQKLSKFDEQRTATYITELANALSYCHSKRVIHRDIKPENLLLGSAGELKIADFGWSVHAPSSRRTTLCGTLDYLPPEMIEGRMHDEKVDLWSLGVLCYEFLVGKPPFEANTYQETYKRISRVEFTFPDFVTEGARDLISRLLKHNPSQRPMLREVLEHPWITANSSKPSNCQNKESASKQS
